Library screen at single concentrations

From ChEMBL document CHEMBL3988442, “University of Dundee, Small-Polar-MMV Screening Library” (2021).

Each number is a percent effect as filed.
The record does not define 0% and 100%; most values in the screen are far below 50% and negative numbers occur (in some assays of this library far below -100).
This is an unselected part of the compounds tested.
Two or more numbers in one place are separate tests of the same structure; such repeats can differ widely.
A dash means the value is not listed here; it may have been measured.

Mtb cholesterol medium: 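Phenotypic screen: M. tuberculosis growth, cholesterol and DPPC medium, 4 days; the read-out is not stated. Compounds at 50 µM. The record gives no direction; compounds that gave an IC50 in retests scored well above the rest, so higher reads as more growth inhibition. Of about 69,000 compounds tested this way, about 370 (0.54%) reached 50% or more in at least one test.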
Mtb glucose medium: 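Growth of Mycobacterium tuberculosis over 3 days (7H9 medium with glucose and tyloxapol); the read-out is not stated. Tested at 50 µM. Direction is inferred from retests: higher values go with more growth inhibition. Of about 69,000 compounds tested this way, about 760 (1.1%) reached 50% or more in at least one test.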

structure	Mtb cholesterol medium	Mtb glucose medium
Fc1ccc(-c2n[nH]cc2-c2ccnc(NCCN3CCCC3)n2)cc1	-45.27	-43.52
CN[C@H]1CC[C@]2(CC1)CNC(=O)c1cc(C)ccc1O2	-6.677	2.235
Cn1c(CCN2CCN(CCc3ccccc3)CC2)nc2ccccc21	-1.92	4.239
Cc1oc(C(=O)Nc2cccc(Cl)c2C)cc1S(N)(=O)=O	1.494 and -18.77	-14.03
CCc1nc(CN(C)CC(=O)NC(C)C)cs1	26.3	9.868
CSc1ncccc1C(=O)NCc1ccc(N(C)C)cc1	-75.44	-
Cc1cccc(C(=O)N2CCN(C(=O)Cc3ccccn3)CC2)c1C	-4.293	16.71
c1ccc(-c2cnc(CNC3CCCN(c4cccnn4)C3)o2)cc1 (stereo not drawn)	4.122	-4.752
Cc1cc(N(C)C)nc(N2CCCC2c2ccccn2)n1 (stereo not drawn)	-8.658	-1.969
N#CCCN(C(=O)CN1CCCC1c1ccccc1Cl)c1ccccc1 (stereo not drawn)	-8.462	20 and 12.78
CC(C)[C@H](C)NC1CCN(c2ccc(-c3cscn3)cc2)CC1	21.53	7.942
O=C(NC1CCCc2c1[nH]c1ccc(F)cc21)c1n[nH]c2c1CCC2 (stereo not drawn)	-8.679	1.041
O=C(CCc1ccc2c(c1)CCO2)Nc1nnn[nH]1	-10.85	-8.567
Cc1ccc(NC(=O)c2nc(N3CCCCC3)ncc2Cl)cc1I	-7.196	8.07
CNc1ccnc(N2C[C@@H](C)[C@](O)(C3CC3)C2)n1	19.03	19.82
CCc1nccn1C1CCCN(C(=O)c2cn3cccnc3n2)C1 (stereo not drawn)	-4.764	36.38
Cc1cccc(-c2ncc(CNC(C)Cc3ncccc3C)cn2)c1 (stereo not drawn)	-13.24	-33.62
Cc1nn(C)c2ncnc(N(C)CC3CCN(CC(C)C)C3)c12 (stereo not drawn)	71.96	-4.594
CCN(Cc1cccc(C(=O)Nc2c(C)cnn2C)c1)[C@H]1COC[C@@H]1O	-7.866	11.72
CN1CCC(NC(=O)c2cc(Br)cc(Cl)c2O)C1=O (stereo not drawn)	6.092	-20.7
O=C(c1ccc(Cl)cc1)N1CC2(CCNC2)OCc2ccccc21 (stereo not drawn)	5.435	35.41
CCc1ccc(-c2c(C)c(-c3cnn(C)c3)nc(N)c2C#N)o1	18.33 and 22.83	32.14 and 24.31
CCC(C(=O)NC(C)(C)C)n1ccc2ncccc2c1=O (stereo not drawn)	-10.78	4.022
Cc1nc(CN2CCCC2c2nc(C(C)C)no2)cs1 (stereo not drawn)	13.45	0.2392 and 14.19
CC(C)CN1CCCC1c1ccc(C(=O)Nc2cccnc2)s1 (stereo not drawn)	-4.347 and 24.46	5.78
O=C(CO)N1CCCC2(CCN(c3ccsc3)C2=O)C1 (stereo not drawn)	-17.87 and -15.22	-13.16
OCCN1CCC(F)(F)C2(CCN(c3cccnc3)C2)C1 (stereo not drawn)	2.149	-25.35
CCN1CCC(CNCc2cc(C)ccc2OC)C1 (stereo not drawn)	-8.684	-7.973 and -6.06
CCN(C1CCN(c2cccc(F)c2C(C)=O)CC1)S(C)(=O)=O	26.2 and -2.254	16.8
CCOc1ccc(NC(=O)NC2CCc3nc(C)nn3C2)cc1Cl (stereo not drawn)	17.07	-0.201
Cc1noc(C)c1CNC(=O)c1ccc(NC2CC2)nc1	-8.662	11.87
CCOc1ccccc1CN(CC)Cc1ccc(S(=O)(=O)NC)cc1	-0.1843	12.83
Cc1n[nH]c(C2CN(C(=O)c3scnc3C)CCO2)n1 (stereo not drawn)	5.282	17.64
Cc1nc(CN2CCC(C(=O)N(C)C3CCC(C)CC3)CC2)cs1 (stereo not drawn)	16.59	10.76 and 8.76
CC(C)[C@@H]1CN(C(=O)c2ccsc2)C[C@H]1C(=O)O	-11.57	-7.934
CCNC(=O)[C@@H]1C[C@H](N)CN1C(=O)c1cccc(CCC(C)(C)O)c1	-17.76 and 0.9919	-26.98
COCCN(C)Cc1cn(C)nc1-c1ccc2c(c1)OCCO2	-6.35	-39.57
Cc1nc(CN2CCCC(NCc3ccsc3)C2)no1 (stereo not drawn)	-21.23	-19.13
CC(=O)N[C@@H](CC(C)C)C(=O)N1CCC(n2cc(CC(C)C)nn2)CC1	-17.6	-2.853
COc1ccc(C(=O)N2CC(=O)N(C3CCC3)CC(O)C2)c(OC)c1 (stereo not drawn)	-7.593	0.676
COc1ccc(OC)c(C(C)Nc2nc3c(C)nn(C)c3c(=O)n2C)c1 (stereo not drawn)	-23.4	-47.98
Cc1ccc(-c2cc(N)c(=O)n(CC(=O)NC3CCCC3)n2)s1	-2.123	-12.88
O=C(O)C(F)(F)F.O=C(c1cccnc1)N1CCCC2(COCCN(c3ccccc3)C2)C1 (stereo not drawn)	-9.077 and -9.015	14.23
Cc1cnn(C2CCCN(C(=O)Cc3cn4ccsc4n3)C2)c1 (stereo not drawn)	20.77	5.226
CCc1ccc(O)c(C(=O)NC2CCN(S(=O)(=O)CC)CC2)c1	-6.588	14.29
O=C(NCCC(O)c1cccs1)c1ccc(Br)o1 (stereo not drawn)	46.35	49.87
CCn1c(CC2CCN(C(=O)c3cc(C(C)C)nn3C)CC2)n[nH]c1=O	-10.35	-1.185
CCCn1[nH]c(CNc2cccc(Cl)c2)nc1=O	26.66	33.48
c1cc(CN2CCC(Cc3noc(C4CC4)n3)CC2)c2c(c1)OCO2	0.1717 and 0.9777	13.74
O=C(C1CCOC1)N1CCc2ncnc(-c3cccnc3)c2CC1 (stereo not drawn)	-22.65	-23.59 and -9.18
Cl.Cl.OC(CN1CCN(Cc2ccc(F)cc2)CC1)C1CC1 (stereo not drawn)	-8.325	-35.59 and 1.22
[H][C@@]12CS(=O)(=O)C[C@]1([H])N(C(=O)c1csc(C)n1)CCN2c1ncccn1	22.92	23.14
CCN(Cc1ccc2cccc(O)c2n1)CC1CCCO1 (stereo not drawn)	-24.61	-23.65
Cc1ccc2nc(C(=O)N3CCC(CCn4cccn4)CC3)cn2c1	-2.52	2.136
Fc1ccc(CN2CCC(F)(F)C3(CCN(c4cnccn4)C3)C2)cc1.O=C(O)C(F)(F)F.O=C(O)C(F)(F)F (stereo not drawn)	21.12	33.46
Cn1nnc2c1C(COCc1ccccn1)CN(C(=O)c1cccs1)C2.O=C(O)C(F)(F)F (stereo not drawn)	-24	-18.74
Cc1cncc(C(=O)NCC2COCc3c(C)nnn3C2)c1 (stereo not drawn)	-11.32	-11.56 and 2.191
CCOC(=O)CNC(=O)N1CCN(c2ncccn2)CC1	-3.453	11.5
Cc1nc2c(c(N3CC=CC3)n1)CCN(c1ncccc1C(N)=O)CC2	4.753	16.14
CCCC1(CO)CCCN(C(=O)CNC(N)=O)C1 (stereo not drawn)	-2.156	1.971
COc1ccc(CCN2CCCC(Cn3nc(C)nc3C)C2)cc1 (stereo not drawn)	-6.317	-3.307
Cc1nc2c(c(=O)n1C)CCN(C(=O)CCc1ccccc1O)CC2	2.841	15.66
Cc1ccc(C)c(CSc2nnc(C(N)Cc3ccccc3)o2)c1.Cl (stereo not drawn)	-8.288	8.444
COc1ccc2c(c1)CC(C1CCOCC1)N(C(=O)c1ccn(C)n1)C2 (stereo not drawn)	0.3025 and 7.532	2.029
Cc1cnn(CC(=O)N2CCCN(Cc3cnn(C(C)C)c3)CC2)c1	8.051	-0.8408 and 9.794
Cc1ccc(CNC(=O)NC2CCN(CC(F)F)CC2)cc1	-10.05	22.35 and 6.684
CN(Cc1ccc(Cl)c(F)c1)C(=O)c1ccncc1F	3.916	-2.479
COc1c(CC2CC(CO)=NO2)c(Br)c2c(c1OC)OCO2 (stereo not drawn)	0.7285	6.704
CN(CC(N)=O)CC(=O)N(C1=CCCCC1)C1CC1	-30.7	-2.429
COc1ccc(CC(=O)NC2CCN(CC(F)F)CC2)cc1OC	-4.603	-0.8084
CC(O)CN1CCN(C(=O)c2sccc2C2CC2)CC1 (stereo not drawn)	-32.94	-29.83
Cc1cc(C)nc(CNC(=O)C(c2cccnc2)N2CCOCC2)n1 (stereo not drawn)	-22.93 and -0.6776	-46.33
O=C(NCc1ccccn1)N(Cc1ccc(F)cc1F)C1CC1	-2.574	-31.64

7 of the entries, repeated:

structure	Mtb cholesterol medium	Mtb glucose medium
Cc1noc(C)c1CNC(=O)c1ccc(NC2CC2)nc1	-8.662	11.87
O=C(NCCC(O)c1cccs1)c1ccc(Br)o1 (stereo not drawn)	46.35	49.87
Cc1ccc(NC(=O)c2nc(N3CCCCC3)ncc2Cl)cc1I	-7.196	8.07
Cc1ccc(CNC(=O)NC2CCN(CC(F)F)CC2)cc1	-10.05	22.35 and 6.684
O=C(CO)N1CCCC2(CCN(c3ccsc3)C2=O)C1 (stereo not drawn)	-17.87 and -15.22	-13.16
CCN(Cc1ccc2cccc(O)c2n1)CC1CCCO1 (stereo not drawn)	-24.61	-23.65
CCc1nc(CN(C)CC(=O)NC(C)C)cs1	26.3	9.868